# Assay results: the supplement of paper PMC4371806
# The full ranking holds about 2,300 compounds; the median of “plate-normalized OD600 growth (mean of duplicates)” is about 0.29, and the lowest 2% start at about 0.22. Some of the results follow.
# Tested on: Escherichia coli BW25113
# Assay: plate-normalized OD600 growth (mean of duplicates) (OD600 (normalized)); higher = more growth (less inhibition)
# Settings: 10 µM
# Method: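 E. coli BW25113 in LB (100 µl, 96-well, no shaking) was exposed to 10 µM of each compound from a ~30,000-member library and grown at 37°C for 24 h or 15°C for 48 h, in duplicate. Growth was read as OD600 and the duplicate ODs were normalized across screening plates to correct plate-to-plate variation. Hits were >3σ below the mean OD600 at 15°C and <2σ below the mean at 37°C.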
SMILES,"plate-normalized OD600 growth (temperature: 15°C, 48 h)","plate-normalized OD600 growth (temperature: 37°C, 24 h)"
CC12CCC3C(CC=C4CC(O)CCC43C)C1C/C(=C\c1ccc(C(F)(F)F)cc1)C2=O (stereo unspecified),0.248,0.621
Cc1ccc(/C=C2/CC3C4CC=C5CC(O)CCC5(C)C4CCC3(C)C2O)o1 (stereo unspecified),0.237,0.613
CC(c1ccccc1)n1cncc1C(=O)O (stereo unspecified),0.254,0.612
CCc1ccccc1N1C(=O)NC(=O)/C(=C/c2ccc(OCc3cccc(F)c3)c(Br)c2)C1=O,0.256,0.628
Cc1ccc2c(c1)c(=O)c1c3n2CCN(CC#N)C3CC1 (stereo unspecified),0.265,0.624
Cc1nn(-c2ccccc2)c2c1C(c1ccccc1)SCC(=O)N2 (stereo unspecified),0.248,0.613
O=C1CSC(c2ccc(Br)cc2)c2c(-c3ccccc3)nn(-c3ccccc3)c2N1 (stereo unspecified),0.228,0.66
CCCCn1c(=O)c(C(=O)Nc2nccs2)c(O)c2ccccc21,0.24,0.646
COC(=O)CSC1=NN1c1cc(C)nc(N)n1,0.239,0.661
CN1C2CCC1CC(=O)C2,0.23,0.606
Cc1nn(Cc2ccccc2Cl)c(=N)s1,0.258,0.625
CC(c1ccccc1)C1C(C#N)=C(N)Oc2c1c(=O)oc1ccccc21 (stereo unspecified),0.241,0.594
c1ccc2c(c1)-c1cccc3cccc-2c13,0.255,0.617
CCN(CC)c1ccc(C=C2C(=O)N(C)C(=O)N(C)C2=O)c(OCc2ccc(Cl)cc2Cl)c1,0.248,0.654
Cc1ccc2c(c1)[C@@H]1CN(C)CC[C@H]1N2C(=S)NC1CCCCC1,0.25,0.6
CN1C(=O)N(C)C(=O)C(CCc2ccncc2)(Cc2cccs2)C1=O,0.256,0.627
CC1=CC(=C2C(=O)NC(=S)NC2=O)C=C(C(F)(F)F)N1CC1CCCO1 (stereo unspecified),0.242,0.607
CN1C(=O)CN=C(c2ccccc2)c2ccccc21,0.242,0.615
C=CC1CN2CCC1CC2C(OC(C)=O)c1ccnc2ccc(OC)cc12 (stereo unspecified),0.252,0.625

SMILES,"plate-normalized OD600 growth (temperature: 15°C, 48 h)","plate-normalized OD600 growth (temperature: 37°C, 24 h)"
COc1cc(CC2C(=O)N(C)C(=O)N(C)C2=O)ccc1OCc1ccccc1,0.255,0.617
CCc1ccccc1N1C(=O)CC(=O)N(C2CCCCC2)C1=O,0.252,0.647
O=C(C1CCCCN1)N1CCN(Cc2cccnc2)CC1 (stereo unspecified),0.243,0.607
CCOP(=S)(NN(Cc1ccccc1)C(=O)c1ccccc1)OCC,0.249,0.656
CCOC(=O)C1=C(N)OC(c2ccccc2)=C(C(=O)OCC)C12C(=O)Nc1ccccc12 (stereo unspecified),0.255,0.617
CCOP(=S)(S)OCC.c1cncc(C2CCCCN2)c1 (stereo unspecified),0.241,0.614
COc1ccc2[nH]c(C)c(CCNCc3cccc4ccccc34)c2c1,0.245,0.622
Cc1ccc2c(c1)[C@@H]1CN(C)CC[C@@H]1N2C(=O)C12CC3CC(CC(C3)C1)C2,0.217,0.613
O=C1NC(=O)C(C(CC(=O)c2ccc(Cl)cc2)c2ccc(Cl)cc2)C(=O)N1 (stereo unspecified),0.242,0.652
COc1cc(Br)c(/C=C2\C(=O)NC(=O)N(c3ccccc3)C2=O)cc1OC,0.237,0.611
O=C(C[N+]12CCC(CC1)C(C(O)(c1ccccc1)c1ccccc1)C2)c1ccc(Br)cc1 (stereo unspecified),0.241,0.624
[Se]C(=NCc1ccccc1)NCc1ccccc1,0.251,0.599
CCN(CC)C(=O)NC1C(N[N+](=O)[O-])N(S(C)(=O)=O)CN1S(C)(=O)=O (stereo unspecified),0.225,0.632
CCc1ccccc1N1C(=O)CC(=O)N(c2cccc(Cl)c2)C1=O,0.247,0.6
O=C1NC(=S)NC(=O)C1=Cc1ccco1,0.243,0.61
c1ccc2c(c1)CCc1c-2[nH]c2ccccc12,0.266,0.607
O=C1NC(=S)N(c2ccccc2)C(=O)/C1=C/c1ccoc1,0.252,0.624
Clc1cc(Cl)cc(Br)c1,0.248,0.615
CCC(=Nc1ccccc1N)c1c(O)n(C)c(=O)n(C)c1=O,0.247,0.631

# Part of the list above, with bars between the fields.
SMILES | plate-normalized OD600 growth (temperature: 15°C, 48 h) | plate-normalized OD600 growth (temperature: 37°C, 24 h)
O=C1NC(=O)C(C(CC(=O)c2ccc(Cl)cc2)c2ccc(Cl)cc2)C(=O)N1 (stereo unspecified) | 0.242 | 0.652
COc1cc(Br)c(/C=C2\C(=O)NC(=O)N(c3ccccc3)C2=O)cc1OC | 0.237 | 0.611
